Percent effect of library compounds

Protein sequences, listed by entry. Tags and fused reporters are not part of them. Residues count along the entry.
UniProt Q8IDJ8, 1-583: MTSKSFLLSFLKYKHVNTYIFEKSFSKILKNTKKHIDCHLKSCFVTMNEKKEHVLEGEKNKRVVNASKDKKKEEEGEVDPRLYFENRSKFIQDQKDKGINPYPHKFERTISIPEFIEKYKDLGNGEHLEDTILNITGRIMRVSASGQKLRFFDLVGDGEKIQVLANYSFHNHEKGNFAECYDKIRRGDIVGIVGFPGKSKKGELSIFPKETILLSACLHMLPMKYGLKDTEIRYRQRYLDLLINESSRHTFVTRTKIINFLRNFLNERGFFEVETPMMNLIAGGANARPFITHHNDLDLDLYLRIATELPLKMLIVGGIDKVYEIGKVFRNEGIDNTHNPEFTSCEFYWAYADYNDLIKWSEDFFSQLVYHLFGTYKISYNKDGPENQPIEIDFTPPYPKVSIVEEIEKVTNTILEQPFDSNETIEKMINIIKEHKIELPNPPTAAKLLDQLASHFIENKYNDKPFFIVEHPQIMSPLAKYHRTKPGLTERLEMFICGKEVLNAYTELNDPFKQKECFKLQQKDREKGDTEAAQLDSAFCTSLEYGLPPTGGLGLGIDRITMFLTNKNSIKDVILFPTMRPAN
UniProt P9WPC5, whole entry: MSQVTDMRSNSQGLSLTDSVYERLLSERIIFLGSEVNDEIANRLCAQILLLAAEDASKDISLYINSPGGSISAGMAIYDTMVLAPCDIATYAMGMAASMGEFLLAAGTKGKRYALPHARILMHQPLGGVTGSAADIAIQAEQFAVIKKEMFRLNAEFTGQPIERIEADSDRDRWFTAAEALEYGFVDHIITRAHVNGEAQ
UniProt P9WPC3, whole entry partner: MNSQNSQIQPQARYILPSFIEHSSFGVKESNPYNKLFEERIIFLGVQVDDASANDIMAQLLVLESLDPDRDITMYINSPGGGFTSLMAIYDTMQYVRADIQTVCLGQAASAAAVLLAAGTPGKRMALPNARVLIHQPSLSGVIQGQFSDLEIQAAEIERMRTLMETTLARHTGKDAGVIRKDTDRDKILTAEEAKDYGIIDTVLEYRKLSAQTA
UniProt P9WFT3, whole entry: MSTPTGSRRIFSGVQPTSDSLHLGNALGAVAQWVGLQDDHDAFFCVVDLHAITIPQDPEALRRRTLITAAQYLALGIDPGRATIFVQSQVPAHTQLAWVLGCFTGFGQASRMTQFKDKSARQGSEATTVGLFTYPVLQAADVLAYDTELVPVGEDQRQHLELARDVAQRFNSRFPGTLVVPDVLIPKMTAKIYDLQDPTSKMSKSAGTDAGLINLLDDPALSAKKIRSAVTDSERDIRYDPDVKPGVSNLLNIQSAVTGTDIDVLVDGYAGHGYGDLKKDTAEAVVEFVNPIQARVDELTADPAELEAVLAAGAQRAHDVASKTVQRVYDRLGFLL

Source: ChEMBL document CHEMBL3988442, “University of Dundee, Small-Polar-MMV Screening Library” (2021).

PfKRS1: 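Enzyme assay of the cytosolic lysyl-tRNA synthetase in 384-well plates, read by luminescence. Target: Lysine-tRNA ligase, Plasmodium falciparum 3D7 (UniProt Q8IDJ8). Compounds at 30 µM. Direction is inferred from only a few compounds that gave an IC50; most scored high, so higher reads as stronger inhibition. Of about 69,000 compounds tested this way, about 49 (0.071%) reached 50% or more in at least one test.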
ClpP1P2: 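ClpP1P2, Mycobacterium tuberculosis (UniProt P9WPC5 and UniProt P9WPC3). Protease assay of ClpP1P2, read by the AMC dye that it sets free. Compounds at 50 µM. Direction is inferred from only a few compounds that gave an IC50; most scored high, so higher reads as stronger inhibition. Most other retested compounds had strongly negative values. About 69,000 compounds were tested under these conditions; 0.015% (about 10) showed 50% or more at least once.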
MtTrpRS: 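Enzyme assay of tryptophanyl-tRNA synthetase; the read-out is not stated. Target: Tryptophan-tRNA ligase, Mycobacterium tuberculosis (UniProt P9WFT3). Tested at 10 µM. Direction is not recorded; retested compounds ran higher, which suggests that high means inhibition. Size under these conditions: about 65,000 compounds, about 64 of them at 50% or above in at least one test.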

Values are the deposited “Percent Effect”, in %. How 0% and 100% were set is not recorded. Most values in the screen are low, and negative values occur. Compounds were drawn at random from those tested, without regard to their results. A dash means the value is not listed here; it may have been measured.

compound | PfKRS1 | ClpP1P2 | MtTrpRS
CN(Cc1ccon1)c1nc(-c2ccccn2)nc2c1CCNCC2 | -0.9236 | -8.501 | -3.454
CCN(CC)C(=O)CN1CCC2(C=Cc3cc(Cl)c(C)cc3O2)CC1 | -1.101 | -19.02 | -11.57
CCNC(=O)N1CCC(n2ccc(C(F)(F)F)n2)CC1 | -0.02376 | -12.09 | 1.671
O=C(NCC1CCSCC1)N(CCCO)C1CCc2ccccc21 (centres unmarked) | 2.189 | 5.587 | 0.08446
COc1cccc(CNC(C)c2ccc(-n3ccnc3)cc2)c1OC (centres unmarked) | -0.4374 | -6.719 | 2.348
Cc1nc(CN2CCCN(CC(=O)N(C)C(C)(C)C#N)CC2)no1 | 5.171 | 7.917 | -0.7936
O=C(c1cnc2ccc(F)cc2c1NCc1ccco1)N1CCCC1 | -0.822 | 5.789 | 1.848
Cc1nnc2ccc(N3CCN(CCc4ccccn4)CC3)nn12 | 0.899 | -13.15 | -4.061
O=C(NCCCO)Nc1cccc(C[S+]([O-])Cc2ccccc2)c1 (centres unmarked) | 7.09 | -6.3 | -1.975
O=C(CCc1nccs1)N1CCN(c2ncccn2)CC1 | 1.277 | 5.087 | -1.486
CC(C1CCN(Cc2cnc(-c3cccs3)nc2)CC1)N(C)C (centres unmarked) | 3.74 | -5.503 | -1.06
CC(C)c1nccn1C1CCCN(C(=O)CN(C)C2CC2)C1 (centres unmarked) | 2.738 | 13.34 | -2.534
CCc1nc(C)c(CC(=O)N2CCC3(CC2)OCCCC3O)c(=O)[nH]1 (centres unmarked) | -0.1929 | -19.84 | 1.212
CN(Cc1ccco1)C(=O)[C@@]12CNC[C@@H]1CN(C1CCCC1)C2 | 3.951 | -6.432 | -3.112
O=c1n(CCNc2cccc3ccccc23)nc2ccccn12 | 0.5163 | 1.351 | 5.806
Cc1ccc(C(=O)NCc2cccnc2-n2cncn2)cc1S(C)(=O)=O | -1.925 | -1.976 | -0.5882
O=C(N1CCC(O)(C(F)(F)F)C1)C1(c2ccc(Cl)cc2)CC1 (centres unmarked) | 3.742 | -1.282 | 15.66
O=C(NCc1nnc2n1CCC2)N1CCC2(CCCCC2)CC1 | 6.109 | 6.05 | -3.818
COc1ccc(S(=O)(=O)NC(=O)c2c(C)noc2C(C)C)cc1C | 5.559 | -7.609 | 3.133
O=C1N(Cc2ccc(F)c(F)c2)CCCC12CCN(C1CCSCC1)C2 (centres unmarked) | -0.8231 | -21.95 | 4.263
COc1ccc(Oc2ncccc2NC(=O)N2CC[C@H](O)C2)cc1 | 5.758 | 0.07176 | -3.385
Cc1nc(S(=O)(=O)CCn2cccn2)n(C2CCCCC2)c1C | 7.197 | -1.256 | 6.931
O=C(NCC(F)(F)F)C1CCC(=O)N(C2CCCC2)C1 (centres unmarked) | 0.4354 | -1.045 | -1.615
COc1ccc2c(ccn2CC(=O)Nc2n[nH]c(CC(C)C)n2)c1 | 6.068 | -2.484 | 1.125
CCn1nc(C)c2nnn(CC(=O)Nc3ccccc3F)c(=O)c21 | 5.501 | 1.103 | -2.461
FC(F)(F)c1cc(N2CCc3ncnc(NC4CC4)c3CC2)ncn1 | -3.607 | 14.36 | -3.043
CSc1nccc(N2CCC3(CCCN(Cc4ccc(F)cc4)C3)C2)n1 (centres unmarked) | 6.848 | -14.62 | -2.585
CNC(=O)CN(C)S(=O)(=O)c1c(Br)cc2[nH]c(=O)oc2c1Cl | 6.591 | -3.734 | -2.408
CN(C)CCN1CCC2(CCCN(C(=O)C3CCC3)C2)CC1 | 2.274 | -2.576 | -2.196
CN1C[C@H](O)[C@]2(CCN(Cc3ccc(OC(F)(F)F)cc3)C2)S1(=O)=O | -0.1151 | -0.6633 | -
COc1ccc(-n2nnc(C(=O)O)c2-c2ccccn2)cc1 | -2.376 | 10.1 | -0.9104
CCSCCOC(=O)CCCc1ccc2c(c1)CC(=O)N2 | -3.244 | 7.354 | -0.6744
CCc1cc(CN2CCCCC2c2ccc(F)cc2)on1 (centres unmarked) | 2.818 | -14.74 | 1.088
C[C@@H]1CN(CC(=O)NCc2ccccn2)C[C@]1(C)O | 7.244 | -12.41 | 3.129
CCOc1ncnc2c1CCN(C(=O)CN(C)C)CC2 | 2.069 | -1.708 | -4.299
Cc1cc(C(=O)N2CCC3(CC2)COCCN(c2cccnc2)C3)[nH]n1 | 3.962 | -3.795 | 2.81
CCCc1nc(N2CCCC3(CCNC3)C2)c2cnn(C)c2n1 (centres unmarked) | 7.492 | -4.135 | -1.163
COc1ncc(CN2CCCC2c2[nH]ncc2C(=O)N(C)C)cn1 (centres unmarked) | -3.647 | -3.858 | 27.51
C[C@H](NC(=O)C1CCCC1)c1nc2cc(-c3ccc(F)cc3)ncn2n1 | -0.7604 | -13.28 | -4
Cc1nn(C)c(C)c1C1CCCN1Cc1ccc(C(N)=O)cc1 (centres unmarked) | 0.7761 | -8.064 | -0.9169
CC(NCC(=O)Nc1ccc(N2CCCCCC2)cc1)c1cccs1 (centres unmarked) | -1.01 | 19.17 | -0.7651
COCc1ccccc1NC(=O)NC(C)c1ccc(C)o1 (centres unmarked) | 2.481 | 6.794 | -0.08796
c1cnn(CC2CN(c3ncnc4sccc34)CCO2)c1 (centres unmarked) | -0.2047 | 4.54 | -0.5629
Cn1cccc1C(=O)N1CC2(CCN(C(=O)c3cccnc3)C2)C1 | 2.763 | 7.284 | -
O=C(Cc1ccco1)N1CCC2(CCOCC2COCC2CC2)CC1 (centres unmarked) | 1.95 | 0.4563 | -5.578
Cc1cnn(Cc2cc(F)ccc2F)c1NC(=O)C1COCCO1 (centres unmarked) | 0.3115 | -6.106 | -1.776
Cc1cc(C2CCCN(S(=O)(=O)c3cn(C)cn3)C2)ccn1 (centres unmarked) | 0.5007 | 1.916 | -7.815

4 of the entries, repeated:

| compound | PfKRS1 | ClpP1P2 | MtTrpRS |
|---|---|---|---|
| `CSc1nccc(N2CCC3(CCCN(Cc4ccc(F)cc4)C3)C2)n1` (centres unmarked) | 6.848 | -14.62 | -2.585 |
| `O=C(CCc1nccs1)N1CCN(c2ncccn2)CC1` | 1.277 | 5.087 | -1.486 |
| `O=C(c1cnc2ccc(F)cc2c1NCc1ccco1)N1CCCC1` | -0.822 | 5.789 | 1.848 |
| `COc1ccc(-n2nnc(C(=O)O)c2-c2ccccn2)cc1` | -2.376 | 10.1 | -0.9104 |